Results are given in words; binding and its absence hold for the method and conditions named. Binding can be weak; no strength is given. For part of these data: Tags and fused reporters may be left off the sequences shown.
Experiments:
[1] = molecular target: T1, SrpI encapsulin shell protein with C-terminal 6X-His tag, from inclusion bodies, refolded (Synechococcus elongatus PCC 7942) (UniProt Q55032); test: SEC; in vitro loading: shell unfolded in guanidine hydrochloride, refolded by 100-fold dilution (50 mM CAPS pH 10, 250 mM arginine, 150 mM NaCl, 20% glycerol, 10 mM DTT) with cargo at 10:1 cargo:compartment; compartment and cargo fractions separated by SEC and read by non-denaturing (sfGFP fluorescence) and denaturing SDS-PAGE; both purified
T1 sequence: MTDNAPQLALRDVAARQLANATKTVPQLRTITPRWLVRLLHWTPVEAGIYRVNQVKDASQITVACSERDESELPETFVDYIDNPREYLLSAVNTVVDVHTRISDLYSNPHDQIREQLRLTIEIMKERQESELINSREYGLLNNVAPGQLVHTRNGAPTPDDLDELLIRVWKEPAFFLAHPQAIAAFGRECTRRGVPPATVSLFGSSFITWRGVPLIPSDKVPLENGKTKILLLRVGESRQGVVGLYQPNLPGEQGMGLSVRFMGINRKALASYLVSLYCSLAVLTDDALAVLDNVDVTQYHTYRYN

By UniProt entry, the sequences of proteins in these tests, tags left out. Where a name states a change or a piece, a line headed by the entry shows the natural chain unless it says otherwise.
UniProt Q8KUU5: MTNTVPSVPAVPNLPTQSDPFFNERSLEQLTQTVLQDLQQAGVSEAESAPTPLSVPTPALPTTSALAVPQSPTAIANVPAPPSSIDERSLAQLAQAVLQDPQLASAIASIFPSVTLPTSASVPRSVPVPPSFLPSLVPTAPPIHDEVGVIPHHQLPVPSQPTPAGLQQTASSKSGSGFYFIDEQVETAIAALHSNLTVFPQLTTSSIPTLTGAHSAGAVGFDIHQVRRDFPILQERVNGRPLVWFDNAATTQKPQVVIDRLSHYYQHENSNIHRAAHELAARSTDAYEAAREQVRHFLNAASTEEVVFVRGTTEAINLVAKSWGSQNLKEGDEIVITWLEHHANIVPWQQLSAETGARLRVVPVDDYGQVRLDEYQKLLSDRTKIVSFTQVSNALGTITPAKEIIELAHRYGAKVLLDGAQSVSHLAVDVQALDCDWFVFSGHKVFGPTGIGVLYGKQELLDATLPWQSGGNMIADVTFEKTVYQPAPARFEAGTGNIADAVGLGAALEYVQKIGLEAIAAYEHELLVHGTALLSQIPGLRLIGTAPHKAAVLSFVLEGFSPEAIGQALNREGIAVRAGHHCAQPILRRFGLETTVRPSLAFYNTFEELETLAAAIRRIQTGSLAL

[2] = molecular target: T2, SrpI encapsulin shell protein (Synpcc7942_B2662), expressed in E. coli (Synechococcus elongatus PCC 7942) (UniProt Q55032); test: co-expression and sfGFP fluorescence of the nanocompartment band on SDS-PAGE; sfGFP fusion cargo co-expressed with the SrpI shell in E. coli; fluorescence of the high-molecular-weight band before Coomassie staining
T2 sequence: T1 sequence

[3] = molecular target: T3, SrpI encapsulin shell protein, endogenous in S. elongatus PCC 7942 (Synechococcus elongatus PCC 7942 (endogenous)) (UniProt Q55032); test: non-denaturing SDS-PAGE of lysate with LC-MS of the excised high-molecular-weight band; clarified lysates of S. elongatus PCC 7942, nutrient-replete or sulfate-starved for 24 and 48 hr; silver stain; in-gel digestion
T3 sequence: T1 sequence

[4] = molecular target: T1, SrpI encapsulin shell protein with C-terminal 6X-His tag, from inclusion bodies, refolded (Synechococcus elongatus PCC 7942); test: negative stain TEM; apo-SrpI and holo-SrpI (CyD loaded by refolding) at 300 nM in 50 mM CAPS pH 10, 250 mM arginine, 150 mM NaCl; uranyl formate; 3D reconstruction without symmetry, ~18 Å; difference map; both purified
[5] = molecular target: T1, SrpI encapsulin shell protein with C-terminal 6X-His tag, from inclusion bodies, refolded (Synechococcus elongatus PCC 7942); test: cryo-EM structure; purified holo-SrpI, 2 mg/mL in 50 mM CAPS pH 10, 250 mM arginine, 150 mM NaCl, 0.05% NP-40; 2.2 Å; symmetry expansion and focused classification for cargo density; both purified

Row | binding [1] | binding [2] | Substance | also measured
1 | binds | binds | CyD N-terminal domain (residues 1–225) fused to sfGFP (from UniProt Q8KUU5) (domain or fragment) | 
2 |  |  | Cysteine desulfurase CyD (Synpcc7942_B2661), endogenous in S. elongatus PCC 7942 (enzyme) | binding [3]: binds
3 |  | binds | Entire cysteine desulfurase CyD fused to sfGFP (Synechococcus elongatus PCC 7942) (enzyme) | 
4 |  | binds | First 100 amino acids of the CyD N-terminal domain fused to sfGFP (Synechococcus elongatus PCC 7942) (domain or fragment) | 
5 | binds |  | Full-length cysteine desulfurase CyD (Synpcc7942_B2661), purified (Synechococcus elongatus PCC 7942) (enzyme) | binding [4]: binds; binding [5]: binds

Row | Substance | binding [1] | binding [2] | also measured
6 | Cysteine desulfurase CyD with the N-terminal domain removed (Synechococcus elongatus PCC 7942) (domain or fragment) | no binding |  | 

— PMC8049743, “Discovery and characterization of a novel family of prokaryotic nanocompartments involved in sulfur metabolism” (eLife, 2021)
